At least one compound was matched to its structure with a doubt left.
Assay: 2D 1H diffusion-ordered spectroscopy (DOSY) in ethanol-d1
Assay type: physicochemical

CC1c2cc(c(O)cc2O)C(C)c2cc(c(O)cc2O)C(C)c2cc(c(O)cc2O)C(C)c2cc1c(O)cc2O (stereo not shown) [RsC1, C-methylresorcin[4]arene]
Diffusion rate (DOSY), pure substance: ~10-9.4 m2/s

Source: patent US20260076885A1, “Complexation of Oxybenzone with C-methylresorcin[4]arene” (University of Cincinnati, priority 2021, published 2026)
